Test results: the supplement of paper PMC10849652
This is one part of the list.

Chains of the proteins cited; added tags and fusions are not shown. Lines headed by an entry give the natural chain unless they say otherwise; changes in a name come on top.
UniProt O95466, whole entry, looked up: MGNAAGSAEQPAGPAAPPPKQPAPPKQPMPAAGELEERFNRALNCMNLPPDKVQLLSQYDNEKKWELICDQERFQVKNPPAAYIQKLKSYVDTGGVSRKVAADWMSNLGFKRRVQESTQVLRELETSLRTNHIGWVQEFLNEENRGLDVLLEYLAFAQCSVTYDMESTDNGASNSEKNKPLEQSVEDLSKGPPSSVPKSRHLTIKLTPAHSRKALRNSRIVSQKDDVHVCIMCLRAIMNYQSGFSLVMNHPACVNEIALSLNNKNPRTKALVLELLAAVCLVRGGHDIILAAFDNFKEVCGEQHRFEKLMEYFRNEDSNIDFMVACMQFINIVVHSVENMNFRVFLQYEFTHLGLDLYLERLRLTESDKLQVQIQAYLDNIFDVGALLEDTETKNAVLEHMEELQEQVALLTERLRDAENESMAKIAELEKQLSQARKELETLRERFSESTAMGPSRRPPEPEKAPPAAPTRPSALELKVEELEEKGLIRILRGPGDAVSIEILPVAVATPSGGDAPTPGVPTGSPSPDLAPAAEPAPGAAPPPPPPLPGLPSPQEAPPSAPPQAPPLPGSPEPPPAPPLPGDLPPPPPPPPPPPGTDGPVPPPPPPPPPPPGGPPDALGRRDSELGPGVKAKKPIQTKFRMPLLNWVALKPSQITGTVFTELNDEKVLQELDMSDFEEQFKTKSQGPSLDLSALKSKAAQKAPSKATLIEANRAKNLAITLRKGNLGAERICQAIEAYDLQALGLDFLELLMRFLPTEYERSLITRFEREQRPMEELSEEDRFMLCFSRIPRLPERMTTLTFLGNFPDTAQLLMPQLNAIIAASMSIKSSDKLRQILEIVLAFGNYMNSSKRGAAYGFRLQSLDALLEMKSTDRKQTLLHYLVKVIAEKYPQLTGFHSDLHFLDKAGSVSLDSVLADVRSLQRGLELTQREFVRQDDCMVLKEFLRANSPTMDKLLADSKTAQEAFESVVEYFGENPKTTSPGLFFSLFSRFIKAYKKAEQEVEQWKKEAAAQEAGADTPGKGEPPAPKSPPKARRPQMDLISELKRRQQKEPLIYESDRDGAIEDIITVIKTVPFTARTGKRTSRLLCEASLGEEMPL
UniProt O95684: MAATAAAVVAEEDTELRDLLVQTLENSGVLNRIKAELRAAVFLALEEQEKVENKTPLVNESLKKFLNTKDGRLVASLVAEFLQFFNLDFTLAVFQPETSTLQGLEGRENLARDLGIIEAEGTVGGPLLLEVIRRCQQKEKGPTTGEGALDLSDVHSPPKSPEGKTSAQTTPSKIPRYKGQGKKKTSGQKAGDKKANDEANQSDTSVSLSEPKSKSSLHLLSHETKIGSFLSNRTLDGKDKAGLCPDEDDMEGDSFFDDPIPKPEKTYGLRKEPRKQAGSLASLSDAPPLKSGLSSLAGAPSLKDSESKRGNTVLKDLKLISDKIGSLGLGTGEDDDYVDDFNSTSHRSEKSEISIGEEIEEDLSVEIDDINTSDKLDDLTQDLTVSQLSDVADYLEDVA
UniProt P62942, whole entry, looked up: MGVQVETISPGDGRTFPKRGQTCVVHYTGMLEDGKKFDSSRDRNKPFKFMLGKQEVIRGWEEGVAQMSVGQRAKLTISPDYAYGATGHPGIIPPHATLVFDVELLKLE
UniProt Q9NWM8: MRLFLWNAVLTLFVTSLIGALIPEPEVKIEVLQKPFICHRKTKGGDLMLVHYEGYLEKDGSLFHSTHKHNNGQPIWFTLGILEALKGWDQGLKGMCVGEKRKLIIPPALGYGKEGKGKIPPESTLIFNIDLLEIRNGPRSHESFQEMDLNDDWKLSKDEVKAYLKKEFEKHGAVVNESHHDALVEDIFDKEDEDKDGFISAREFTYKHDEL
UniProt Q9Y3D6: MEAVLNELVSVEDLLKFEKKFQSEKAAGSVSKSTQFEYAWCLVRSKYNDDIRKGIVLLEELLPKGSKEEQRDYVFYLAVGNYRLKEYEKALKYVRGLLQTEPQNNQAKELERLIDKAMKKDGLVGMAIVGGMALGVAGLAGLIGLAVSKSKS
UniProt Q9HA64: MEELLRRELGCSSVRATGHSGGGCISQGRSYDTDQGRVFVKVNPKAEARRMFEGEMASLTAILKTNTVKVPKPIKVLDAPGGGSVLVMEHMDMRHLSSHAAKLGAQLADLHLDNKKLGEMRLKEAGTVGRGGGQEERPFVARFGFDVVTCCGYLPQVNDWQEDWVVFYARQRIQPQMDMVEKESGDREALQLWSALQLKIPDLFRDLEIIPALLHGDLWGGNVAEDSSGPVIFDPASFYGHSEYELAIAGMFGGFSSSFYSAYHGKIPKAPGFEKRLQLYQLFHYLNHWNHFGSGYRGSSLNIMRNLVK
UniProt P21333, whole entry, looked up: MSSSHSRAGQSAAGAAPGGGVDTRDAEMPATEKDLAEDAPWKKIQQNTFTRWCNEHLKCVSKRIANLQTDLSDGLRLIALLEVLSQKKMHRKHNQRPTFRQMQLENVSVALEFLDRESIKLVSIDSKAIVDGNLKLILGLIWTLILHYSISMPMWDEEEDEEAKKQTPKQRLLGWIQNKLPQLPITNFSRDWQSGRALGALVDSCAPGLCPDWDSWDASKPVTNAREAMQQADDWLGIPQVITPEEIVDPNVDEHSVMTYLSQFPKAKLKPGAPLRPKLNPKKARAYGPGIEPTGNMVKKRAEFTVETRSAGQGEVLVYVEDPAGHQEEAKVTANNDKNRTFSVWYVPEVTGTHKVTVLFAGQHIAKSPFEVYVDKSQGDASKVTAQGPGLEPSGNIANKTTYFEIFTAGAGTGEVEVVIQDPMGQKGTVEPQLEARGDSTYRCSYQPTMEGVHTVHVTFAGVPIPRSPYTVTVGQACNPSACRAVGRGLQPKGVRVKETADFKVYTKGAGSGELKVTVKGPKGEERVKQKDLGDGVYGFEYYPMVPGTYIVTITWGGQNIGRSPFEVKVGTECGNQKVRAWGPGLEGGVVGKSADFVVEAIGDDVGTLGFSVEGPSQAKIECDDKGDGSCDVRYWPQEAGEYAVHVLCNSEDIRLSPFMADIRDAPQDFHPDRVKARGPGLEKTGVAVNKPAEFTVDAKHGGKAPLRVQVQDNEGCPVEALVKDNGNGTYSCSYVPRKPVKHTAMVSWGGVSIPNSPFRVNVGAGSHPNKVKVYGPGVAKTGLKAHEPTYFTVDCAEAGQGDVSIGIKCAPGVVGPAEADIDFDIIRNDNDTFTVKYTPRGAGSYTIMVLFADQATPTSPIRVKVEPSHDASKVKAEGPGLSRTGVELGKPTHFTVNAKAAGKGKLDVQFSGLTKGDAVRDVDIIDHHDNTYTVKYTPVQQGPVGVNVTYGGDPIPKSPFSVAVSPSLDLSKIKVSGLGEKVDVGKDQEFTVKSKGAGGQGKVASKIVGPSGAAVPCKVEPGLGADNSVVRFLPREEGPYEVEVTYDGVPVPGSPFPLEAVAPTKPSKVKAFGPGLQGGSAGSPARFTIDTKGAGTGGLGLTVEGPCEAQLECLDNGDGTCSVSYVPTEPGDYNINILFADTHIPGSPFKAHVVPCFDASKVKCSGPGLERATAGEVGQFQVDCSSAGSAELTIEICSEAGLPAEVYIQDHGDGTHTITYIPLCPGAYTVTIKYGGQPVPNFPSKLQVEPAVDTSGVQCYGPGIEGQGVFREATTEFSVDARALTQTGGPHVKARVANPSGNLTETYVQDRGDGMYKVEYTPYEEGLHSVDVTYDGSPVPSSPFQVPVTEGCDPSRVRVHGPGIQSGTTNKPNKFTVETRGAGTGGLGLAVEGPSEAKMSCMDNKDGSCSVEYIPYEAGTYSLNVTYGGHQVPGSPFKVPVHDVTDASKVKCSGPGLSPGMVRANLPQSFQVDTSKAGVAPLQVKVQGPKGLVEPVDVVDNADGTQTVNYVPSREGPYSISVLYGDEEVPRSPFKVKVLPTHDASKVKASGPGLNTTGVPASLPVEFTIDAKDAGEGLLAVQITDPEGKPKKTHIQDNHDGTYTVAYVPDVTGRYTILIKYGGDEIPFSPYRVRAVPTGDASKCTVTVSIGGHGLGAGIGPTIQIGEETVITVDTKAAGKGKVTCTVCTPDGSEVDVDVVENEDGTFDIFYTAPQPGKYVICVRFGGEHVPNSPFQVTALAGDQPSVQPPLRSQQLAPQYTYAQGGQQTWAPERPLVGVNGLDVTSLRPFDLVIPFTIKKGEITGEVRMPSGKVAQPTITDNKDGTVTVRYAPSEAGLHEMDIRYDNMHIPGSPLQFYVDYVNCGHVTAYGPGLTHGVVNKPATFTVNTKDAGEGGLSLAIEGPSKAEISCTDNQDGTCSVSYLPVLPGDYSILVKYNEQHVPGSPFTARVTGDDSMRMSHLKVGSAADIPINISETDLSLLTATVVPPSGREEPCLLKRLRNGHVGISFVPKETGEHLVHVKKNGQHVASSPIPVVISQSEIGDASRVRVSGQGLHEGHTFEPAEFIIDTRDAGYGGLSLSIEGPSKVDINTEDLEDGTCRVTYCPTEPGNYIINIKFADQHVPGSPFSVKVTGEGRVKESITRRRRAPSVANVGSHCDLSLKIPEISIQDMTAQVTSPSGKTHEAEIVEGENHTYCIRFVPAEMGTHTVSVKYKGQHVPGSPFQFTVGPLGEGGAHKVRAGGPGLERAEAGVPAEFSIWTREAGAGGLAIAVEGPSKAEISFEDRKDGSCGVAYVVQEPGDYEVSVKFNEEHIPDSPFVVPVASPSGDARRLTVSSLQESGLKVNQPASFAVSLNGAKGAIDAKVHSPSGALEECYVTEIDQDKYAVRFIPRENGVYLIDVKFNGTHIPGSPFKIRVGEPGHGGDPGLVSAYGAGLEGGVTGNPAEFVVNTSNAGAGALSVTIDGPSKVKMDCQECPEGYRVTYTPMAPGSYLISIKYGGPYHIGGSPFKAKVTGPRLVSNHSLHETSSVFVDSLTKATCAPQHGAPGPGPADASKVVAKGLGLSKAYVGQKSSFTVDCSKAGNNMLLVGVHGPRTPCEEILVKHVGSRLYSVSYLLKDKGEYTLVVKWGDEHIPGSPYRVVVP
UniProt Q92562: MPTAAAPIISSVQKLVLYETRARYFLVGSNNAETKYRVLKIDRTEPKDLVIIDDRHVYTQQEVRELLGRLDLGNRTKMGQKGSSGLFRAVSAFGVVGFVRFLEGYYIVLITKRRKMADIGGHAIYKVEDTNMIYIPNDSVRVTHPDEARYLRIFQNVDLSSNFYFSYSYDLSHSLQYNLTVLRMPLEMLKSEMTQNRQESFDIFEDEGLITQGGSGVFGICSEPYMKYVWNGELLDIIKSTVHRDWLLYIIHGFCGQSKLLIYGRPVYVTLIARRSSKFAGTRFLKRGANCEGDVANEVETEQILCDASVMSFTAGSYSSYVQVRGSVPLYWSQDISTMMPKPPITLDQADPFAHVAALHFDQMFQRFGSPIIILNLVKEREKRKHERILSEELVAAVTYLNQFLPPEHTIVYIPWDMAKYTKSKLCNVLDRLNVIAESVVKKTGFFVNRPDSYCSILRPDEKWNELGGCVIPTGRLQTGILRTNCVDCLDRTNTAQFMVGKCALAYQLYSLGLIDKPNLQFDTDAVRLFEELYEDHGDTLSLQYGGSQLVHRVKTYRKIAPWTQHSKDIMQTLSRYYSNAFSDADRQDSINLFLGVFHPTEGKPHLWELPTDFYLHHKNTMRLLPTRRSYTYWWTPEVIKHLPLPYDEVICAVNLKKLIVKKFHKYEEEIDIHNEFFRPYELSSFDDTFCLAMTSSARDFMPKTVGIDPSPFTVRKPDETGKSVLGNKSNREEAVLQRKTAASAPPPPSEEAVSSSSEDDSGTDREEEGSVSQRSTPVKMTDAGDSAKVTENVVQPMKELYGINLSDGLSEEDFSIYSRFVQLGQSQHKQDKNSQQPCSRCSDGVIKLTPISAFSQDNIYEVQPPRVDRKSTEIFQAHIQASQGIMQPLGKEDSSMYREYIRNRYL
UniProt Q6PIW4: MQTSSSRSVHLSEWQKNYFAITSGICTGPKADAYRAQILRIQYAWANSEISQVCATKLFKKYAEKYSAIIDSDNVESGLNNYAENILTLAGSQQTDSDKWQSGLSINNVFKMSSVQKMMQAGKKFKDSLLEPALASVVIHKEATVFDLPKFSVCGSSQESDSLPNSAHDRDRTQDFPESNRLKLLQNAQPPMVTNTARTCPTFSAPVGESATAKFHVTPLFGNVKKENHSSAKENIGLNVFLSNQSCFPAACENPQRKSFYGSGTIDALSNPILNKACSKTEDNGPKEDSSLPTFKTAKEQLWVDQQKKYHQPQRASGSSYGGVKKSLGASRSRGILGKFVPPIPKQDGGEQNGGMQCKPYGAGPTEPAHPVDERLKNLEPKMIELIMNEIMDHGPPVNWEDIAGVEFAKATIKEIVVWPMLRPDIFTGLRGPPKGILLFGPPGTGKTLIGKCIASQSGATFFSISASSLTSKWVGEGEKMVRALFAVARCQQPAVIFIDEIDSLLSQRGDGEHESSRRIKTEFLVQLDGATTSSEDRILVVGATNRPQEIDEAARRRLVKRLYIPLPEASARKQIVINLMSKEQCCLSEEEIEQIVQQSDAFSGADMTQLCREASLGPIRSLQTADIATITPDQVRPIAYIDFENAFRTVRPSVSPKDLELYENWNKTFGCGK

Columns and labels:
Experiment in all cases: log2 fold change, soluble protein after heating vs DMSO (PISA); higher = thermal stabilisation; K562 lysate, 10 uM; active = over 0.2 and 3.5 SD of the protein, either way, in both replicates (recomputed)
[1] = compound: CCCS(=O)(=O)Nc1ccc(F)c(C(=O)c2c[nH]c3ncc(-c4ccc(Cl)cc4)cc23)c1F [vemurafenib]
In short: (§1)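 Pellets of K562 cells were dounce-homogenised in PBS pH 7.4 with 1 mM MgCl2, and the crude extract was held at 1 mg/mL protein for a 30 min treatment with 10 μM compound. Aliquots were heated for 3 min over 48°C-58°C and pooled before NP-40 was added to 0.5% at 4°C. The supernatant from 21,000xg for 90 min was quantified by TMTpro 16plex LC-MS/MS with channel sums equalised. Values are reported from duplicates as log-two fold change in thermal stability relative to solvent controls.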

[2] = compound: CCCS(=O)(=O)Nc1ccc(F)c(C(=O)c2c[nH]c3ncc(Cl)cc23)c1F
In short: as §1

[3] = compound: CCN(CCCOc1ccc2c(Nc3cc(CC(=O)Nc4cccc(F)c4)[nH]n3)ncnc2c1)CCOP(=O)(O)O [barasertib]
In short: as §1

[4] = compound: CC[C@@H]1C(=O)N(C)c2cnc(Nc3ccc(C(=O)NC4CCN(C)CC4)cc3OC)nc2N1C1CCCC1
In short: as §1

[5] = compound: CC[C@@H]1C(=O)N(C)c2cnc(Nc3ccc(C(=O)N[C@H]4CC[C@H](N5CCN(CC6CC6)CC5)CC4)cc3OC)nc2N1C(C)C [volasertib]
In short: as §1

[6] = compound: CCn1c(C(=O)N(C2CC2)C2CC2)cc2c3c(ncn3C)c(Nc3cc(C)n(C)n3)nc21
In short: as §1

[7] = compound: CCn1cc(-c2ccnc3[nH]c(-c4cccc(CN(C)C)c4)cc23)c(-c2ccc(NC(=O)N(C)C)cc2)n1
In short: as §1

[8] = compound: CN1CCC(CNc2ccc3ncc(-c4cccc(OC(F)(F)F)c4)n3n2)CC1
In short: as §1

[9] = compound: CN1CCN(CCOc2cc(OC3CCOCC3)c3c(Nc4c(Cl)ccc5c4OCO5)ncnc3c2)CC1 [saracatinib]
In short: as §1

[10] = compound: CN1CCN(c2nc(C3=C(c4c[nH]c5ccccc45)C(=O)NC3=O)c3ccccc3n2)CC1 [sotrastaurin]
In short: as §1

Measured: log2 fold change

FMNL1 isoform 3 (UniProt O95466)
inactive: [1] 0.022 | [2] -0.008 | [3] -0.002 | [4] 0.028 | [5] -0.088 | [6] -0.035 | [7] 0.026 | [8] -0.032 | [9] 0.007 | [10] -0.006

FLT4 (UniProt P35916)
inactive: [1] -0.069 | [2] -0.046 | [3] -0.036 | [4] -0.031 | [5] -0.042 | [6] 0.135 | [7] 0.018 | [8] 0.08 | [9] -0.036

FGFR1OP isoform 3 (UniProt O95684)
inactive: [1] -0.001

FGFR1OP (UniProt O95684)
inactive: [1] 0.016 | [2] 0.002 | [3] -0.052 | [4] 0.09 | [5] 0.023 | [6] -0.007 | [7] -0.034 | [8] 0.032 | [9] 0.025 | [10] 0.007

FNTB (UniProt P49356)
active: [4] 0.285
inactive: [1] 0.055 | [2] -0.009 | [3] -0.036 | [5] 0.005 | [6] 0.037 | [7] -0.036 | [8] 0.016 | [9] 0.016 | [10] 0.042

FBXO38 (UniProt Q6PIJ6)
inactive: [1] -0.042 | [2] -0.024 | [3] 0.052 | [4] -0.121 | [5] 0.037 | [6] 0.028 | [7] 0.006 | [8] 0.036 | [9] -0.039 | [10] 0.027

FGFR1OP2 (UniProt Q9NVK5)
inactive: [1] 0.038 | [2] -0.046 | [3] 0 | [4] -0.078 | [5] 0.069 | [6] -0.017 | [7] 0.002 | [8] 0 | [9] -0.004 | [10] 0.103

FEM1B (UniProt Q9UK73)
inactive: [1] 0.051 | [2] 0.057 | [3] 0.054 | [4] 0.1 | [5] -0.191 | [6] -0.016 | [7] -0.203 | [8] 0.056 | [9] 0.038 | [10] 0.029

FKBP1A (UniProt P62942)
active: [7] -0.854
inactive: [1] -0.138 | [2] -0.028 | [3] 0.092 | [4] 0.107 | [5] 0.163 | [6] -0.036 | [8] 0.146 | [9] 0.052 | [10] -0.017

FLOT2 (UniProt Q14254)
inactive: [1] 0.006 | [2] -0.018 | [3] 0.032 | [4] -0.001 | [5] -0.005 | [6] 0.01 | [7] -0.026 | [8] 0.018 | [9] 0.001 | [10] -0.009

FERMT2 isoform 3 (UniProt Q96AC1)
inactive: [1] 0.077 | [2] -0.029 | [3] 0.02 | [4] -0.017 | [5] -0.032 | [6] 0.037 | [7] -0.013 | [8] 0.062 | [9] 0.049 | [10] 0.001

FLVCR1 (UniProt Q9Y5Y0)
inactive: [1] -0.019 | [2] 0.044 | [3] 0.064 | [4] -0.027 | [5] 0.01 | [6] -0.03 | [7] 0.007 | [8] 0.045 | [9] -0.056 | [10] 0.014

FKBP14 (UniProt Q9NWM8)
inactive: [1] -0.015 | [2] 0.005 | [3] -0.073 | [4] 0.006 | [5] 0.002 | [6] -0.048 | [7] -0.026 | [8] 0.038 | [9] -0.001 | [10] -0.078

FBXO4 (UniProt Q9UKT5)
inactive: [1] -0.022 | [2] 0.001 | [3] 0.01 | [4] 0.023 | [5] -0.018 | [6] 0.031 | [7] -0.074 | [8] -0.021 | [9] -0.019 | [10] 0.022

FIS1 (UniProt Q9Y3D6)
inactive: [1] -0.023 | [2] 0.029 | [3] 0.015 | [4] 0.063 | [5] 0.094 | [6] -0.061 | [7] 0.022 | [8] -0.007 | [9] 0.008 | [10] -0.049

FDX1 (UniProt P10109)
inactive: [1] -0.01 | [2] 0.017 | [3] 0.134 | [4] 0.015 | [5] 0.037 | [6] 0.032 | [7] -0.024 | [8] -0.009 | [9] 0.038 | [10] -0.071

FLOT1 (UniProt O75955)
inactive: [1] 0.005 | [2] -0.003 | [3] 0.013 | [4] 0.021 | [5] 0.004 | [6] -0.023 | [7] 0.019 | [8] -0.012 | [9] 0.004 | [10] -0.027

FBXO6 (UniProt Q9NRD1)
inactive: [1] -0.009 | [2] 0.057 | [3] -0.016 | [4] 0.033 | [5] 0.013 | [6] 0.013 | [7] 0.019 | [8] 0.033 | [9] -0.007 | [10] -0.019

FBXW9 (UniProt Q5XUX1)
inactive: [1] 0.084 | [2] 0.052 | [3] 0.025 | [4] -0.025 | [5] -0.019 | [6] -0.029 | [7] -0.006 | [8] -0.013 | [9] 0.057 | [10] 0.069

FN3KRP (UniProt Q9HA64)
inactive: [1] -0.002 | [2] 0 | [3] -0.032 | [4] 0.015 | [5] 0.011 | [6] -0.003 | [7] -0.036 | [8] 0.036 | [9] 0.035 | [10] 0.002

FLNA (UniProt P21333)
inactive: [1] 0 | [2] 0.002 | [3] -0.012 | [4] 0.015 | [5] 0.009 | [6] -0.021 | [7] -0.076 | [8] 0.056 | [9] -0.007 | [10] -0.023

FKBPL (UniProt Q9UIM3)
inactive: [1] 0.01 | [2] 0.035 | [3] 0.01 | [4] 0.017 | [5] -0.04 | [6] 0.031 | [7] 0.044 | [8] -0.016 | [9] 0.012 | [10] 0.049

FANCI (UniProt Q9NVI1)
inactive: [1] 0.018 | [2] 0.021 | [3] 0.045 | [4] -0.028 | [5] -0.053 | [6] 0.031 | [7] 0.021 | [8] -0.119 | [9] 0.017 | [10] 0.02

FEN1 (UniProt P39748)
inactive: [1] 0.035 | [2] 0.033 | [3] -0.029 | [4] -0.034 | [5] -0.021 | [6] -0.02 | [7] -0.024 | [8] -0.036 | [9] 0.048 | [10] 0.02

FBL (UniProt P22087)
inactive: [1] 0.004 | [2] 0.004 | [3] 0.009 | [4] 0.035 | [5] -0.044 | [6] -0.015 | [7] 0.009 | [8] -0.042 | [9] 0.025 | [10] -0.007

FMC1 (UniProt Q96HJ9)
inactive: [1] 0.059 | [2] 0.04 | [3] 0.13 | [4] -0.07 | [5] -0.008 | [6] -0.041 | [7] 0.021 | [8] 0.029 | [9] -0.046 | [10] -0.026

2 neighbouring entries out of the list so far:
FBL (UniProt P22087)
inactive: [1] 0.004 | [2] 0.004 | [3] 0.009 | [4] 0.035 | [5] -0.044 | [6] -0.015 | [7] 0.009 | [8] -0.042 | [9] 0.025 | [10] -0.007

FMC1 (UniProt Q96HJ9)
inactive: [1] 0.059 | [2] 0.04 | [3] 0.13 | [4] -0.07 | [5] -0.008 | [6] -0.041 | [7] 0.021 | [8] 0.029 | [9] -0.046 | [10] -0.026

The listing continues.

FIG4 (UniProt Q92562)
inactive: [1] 0.107 | [2] 0.071 | [3] -0.085 | [4] -0.201 | [5] -0.012 | [6] -0.045 | [7] 0.104 | [8] -0.012 | [9] 0.032 | [10] 0.092

FBXO42 (UniProt Q6P3S6)
inactive: [1] 0.042 | [2] 0.019 | [3] 0.065 | [4] 0.056 | [5] -0.022 | [6] -0.019 | [7] -0.133 | [8] 0.033 | [9] 0.056 | [10] 0.033

FCHO2 (UniProt Q0JRZ9)
inactive: [1] -0.044 | [2] 0.043 | [3] -0.01 | [4] 0.067 | [5] 0.016 | [6] -0.051 | [7] 0.019 | [8] -0.041 | [9] 0.018 | [10] -0.008

FBXO7 (UniProt Q9Y3I1)
inactive: [1] -0.007 | [2] 0.017 | [3] 0.003 | [4] 0.041 | [5] 0.01 | [6] 0.029 | [7] -0.066 | [8] 0.063 | [9] -0.019 | [10] -0.053

FIGNL1 (UniProt Q6PIW4)
inactive: [1] -0.012 | [2] 0.042 | [3] 0.03 | [4] -0.063 | [5] -0.047 | [6] 0.027 | [7] -0.108 | [8] 0.036 | [9] 0.006 | [10] -0.015
